PubChem BioAssay AID1508588, Peter MacCallum Cancer Centre – 2020
Shown is one part, drawn at random, of about 18,000 reagents tested. 790 of them (4.4%) count as active. 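Calls rest on a combination of fold-change classes in drug and vehicle arms, not all shown here.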 Unmarked entries are inactive. Some reagents were tested in more than one well and are listed for each. Reagent sequences are not shown.

- Screen: 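Knock-downs boosting vemurafenib effects on melanoma cell growth or lactate release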 (primary screen)
- Cell system: human WM266.4 melanoma cells (BRAF V600 mutant)
- Reagent: siRNA pool against human genes, 40 nM
- Timing: 96 h from transfection to read-out
- Challenge: vemurafenib 300 nM (about IC25), added 48 h after transfection, for 48 h; comparison arm got DMSO vehicle only
- Measurement: 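Cell gain (DAPI nuclei at end minus before drug, mean of two replicates) and medium lactate by absorbance per cell, both as ratio to non-targeting siRNA, also grouped into fold-change classes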
- Direction: cell gain with vemurafenib: higher = more cell gain than with non-targeting siRNA; lactate per cell with vemurafenib: higher = more lactate made per cell
- Hit rule: 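Enhancement is called by pairing each knock-down's vehicle-arm and drug-arm fold-change classes for viability or glycolysis; which class combinations qualify is not given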
- Meaning of the calls: active = enhances vemurafenib effect; inactive = no enhancement seen

{"Target gene": "HLA-DRB3 (major histocompatibility complex, class II, DR beta 3)", "cell gain with vemurafenib": 0.43, "lactate per cell with vemurafenib": 1.64}
{"Target gene": "PRRT2 (proline rich transmembrane protein 2)", "cell gain with vemurafenib": 1.38, "lactate per cell with vemurafenib": 0.93}
{"Target gene": "CCND3 (cyclin D3)", "cell gain with vemurafenib": 0.57, "lactate per cell with vemurafenib": 1.82}
{"Target gene": "NMBR (neuromedin B receptor)", "cell gain with vemurafenib": 0.54, "lactate per cell with vemurafenib": 1.24}
{"Target gene": "ZNF311 (zinc finger protein 311)", "cell gain with vemurafenib": 0.79, "lactate per cell with vemurafenib": 0.85}
{"Target gene": "SLC22A17", "cell gain with vemurafenib": 0.97, "lactate per cell with vemurafenib": 1.01}
{"Target gene": "LZIC (leucine zipper and CTNNBIP1 domain containing)", "cell gain with vemurafenib": 1.23, "lactate per cell with vemurafenib": 1.04}
{"Target gene": "ELOA (elongin A)", "cell gain with vemurafenib": 1.18, "lactate per cell with vemurafenib": 0.57}
{"Target gene": "KHDC1 (KH domain containing 1)", "cell gain with vemurafenib": 0.65, "lactate per cell with vemurafenib": 1.23}
{"Target gene": "LPL (lipoprotein lipase)", "cell gain with vemurafenib": 0.58, "lactate per cell with vemurafenib": 0.28}
{"Target gene": "ZER1 (zyg-11 related cell cycle regulator)", "cell gain with vemurafenib": 0.7, "lactate per cell with vemurafenib": 1.08}
{"Target gene": "TRHR (thyrotropin releasing hormone receptor)", "cell gain with vemurafenib": -0.13, "lactate per cell with vemurafenib": 5.23}
{"Target gene": "NPHP3 (nephrocystin 3)", "cell gain with vemurafenib": 0.83, "lactate per cell with vemurafenib": 1.06}
{"Target gene": "ZNF773 (zinc finger protein 773)", "cell gain with vemurafenib": 0.92, "lactate per cell with vemurafenib": 0.74}
{"Target gene": "IKBKE (inhibitor of nuclear factor kappa B kinase subunit epsilon)", "cell gain with vemurafenib": 0.19, "lactate per cell with vemurafenib": 1.6}
{"Target gene": "ARSI (arylsulfatase family member I)", "cell gain with vemurafenib": 0.59, "lactate per cell with vemurafenib": 0.75}
{"Target gene": "YWHAG", "cell gain with vemurafenib": 0.16, "lactate per cell with vemurafenib": 1.23}
{"Target gene": "PLEKHH1 (pleckstrin homology, MyTH4 and FERM domain containing H1)", "cell gain with vemurafenib": 0.2, "lactate per cell with vemurafenib": 1.17}
{"Target gene": "DDX41 (DEAD-box helicase 41)", "cell gain with vemurafenib": 0.46, "lactate per cell with vemurafenib": 1.43}
{"Target gene": "DYNLRB1 (dynein light chain roadblock-type 1)", "cell gain with vemurafenib": 0.95, "lactate per cell with vemurafenib": 0.99}
{"Target gene": "POU6F1 (POU class 6 homeobox 1)", "cell gain with vemurafenib": 0.9, "lactate per cell with vemurafenib": 0.9}
{"Target gene": "AP3M2 (adaptor related protein complex 3 subunit mu 2)", "cell gain with vemurafenib": -0.04, "lactate per cell with vemurafenib": 2.37}
{"Target gene": "LDHAL6A (lactate dehydrogenase A like 6A)", "cell gain with vemurafenib": 0.83, "lactate per cell with vemurafenib": 0.45}
{"Target gene": "SERPINA6 (serpin family A member 6)", "cell gain with vemurafenib": 0.27, "lactate per cell with vemurafenib": 1.87}
{"Target gene": "DEFB123 (defensin beta 123)", "cell gain with vemurafenib": 0.6, "lactate per cell with vemurafenib": 1.49}
{"Target gene": "TOX2 (TOX high mobility group box family member 2)", "cell gain with vemurafenib": 1.03, "lactate per cell with vemurafenib": 0.78}
{"Target gene": "PPP2R5C (protein phosphatase 2 regulatory subunit B'gamma)", "cell gain with vemurafenib": 0.73, "lactate per cell with vemurafenib": 1.17}
{"Target gene": "TK2 (thymidine kinase 2)", "cell gain with vemurafenib": 0.71, "lactate per cell with vemurafenib": 1.31}

Next part, starting with the last 4 of the part before.
{"Target gene": "DEFB123 (defensin beta 123)", "cell gain with vemurafenib": 0.6, "lactate per cell with vemurafenib": 1.49}
{"Target gene": "TOX2 (TOX high mobility group box family member 2)", "cell gain with vemurafenib": 1.03, "lactate per cell with vemurafenib": 0.78}
{"Target gene": "PPP2R5C (protein phosphatase 2 regulatory subunit B'gamma)", "cell gain with vemurafenib": 0.73, "lactate per cell with vemurafenib": 1.17}
{"Target gene": "TK2 (thymidine kinase 2)", "cell gain with vemurafenib": 0.71, "lactate per cell with vemurafenib": 1.31}
{"Target gene": "TRIM27 (tripartite motif containing 27)", "cell gain with vemurafenib": 0.49, "lactate per cell with vemurafenib": 1}
{"Target gene": "TRIM27 (tripartite motif containing 27)", "cell gain with vemurafenib": 0.57, "lactate per cell with vemurafenib": 1.38}
{"Target gene": "OR6K3 (olfactory receptor family 6 subfamily K member 3)", "cell gain with vemurafenib": 0.69, "lactate per cell with vemurafenib": 0.97}
{"Target gene": "PROM2 (prominin 2)", "cell gain with vemurafenib": 0.49, "lactate per cell with vemurafenib": 0.38}
{"Target gene": "USP28 (ubiquitin specific peptidase 28)", "cell gain with vemurafenib": 1.27, "lactate per cell with vemurafenib": 0.62}
{"Target gene": "CRYGN (crystallin gamma N)", "cell gain with vemurafenib": 0.85, "lactate per cell with vemurafenib": 0.88}
{"Target gene": "ALX4 (ALX homeobox 4)", "cell gain with vemurafenib": 0.46, "lactate per cell with vemurafenib": 0.65}
{"Target gene": "IFNA8 (interferon alpha 8)", "cell gain with vemurafenib": 0.46, "lactate per cell with vemurafenib": 0.8}
{"Target gene": "ALDH2 (aldehyde dehydrogenase 2 family member)", "cell gain with vemurafenib": 0.5, "lactate per cell with vemurafenib": 0.51}
{"Target gene": "APOH (apolipoprotein H)", "cell gain with vemurafenib": 0.55, "lactate per cell with vemurafenib": 1.78}
{"Target gene": "ARCN1 (archain 1 coat protein complex I subunit delta)", "cell gain with vemurafenib": -0.14, "lactate per cell with vemurafenib": 0.99}
{"Target gene": "EBF2 (EBF transcription factor 2)", "cell gain with vemurafenib": "0.24 (active)", "lactate per cell with vemurafenib": 0.15}
{"Target gene": "SLF1 (SMC5/6 complex localization factor 1)", "cell gain with vemurafenib": 0.32, "lactate per cell with vemurafenib": 0.86}
{"Target gene": "POC5 (POC5 centriolar protein)", "cell gain with vemurafenib": 0.23, "lactate per cell with vemurafenib": 2.57}
{"Target gene": "FZD4 (frizzled class receptor 4)", "cell gain with vemurafenib": 0.87, "lactate per cell with vemurafenib": 0.73}
{"Target gene": "ELOVL3 (ELOVL fatty acid elongase 3)", "cell gain with vemurafenib": 0.92, "lactate per cell with vemurafenib": 0.61}
{"Target gene": "AHSA1 (activator of HSP90 ATPase activity 1)", "cell gain with vemurafenib": 0.19, "lactate per cell with vemurafenib": 0.89}
{"Target gene": "PDZD7 (PDZ domain containing 7)", "cell gain with vemurafenib": 0.19, "lactate per cell with vemurafenib": 0.74}
{"Target gene": "SLC22A8", "cell gain with vemurafenib": 0.48, "lactate per cell with vemurafenib": 1.1}
{"Target gene": "SPOPL (speckle type BTB/POZ protein like)", "cell gain with vemurafenib": 0.58, "lactate per cell with vemurafenib": 0.9}
{"Target gene": "FKBP11 (FKBP prolyl isomerase 11)", "cell gain with vemurafenib": 0.61, "lactate per cell with vemurafenib": 0.4}
{"Target gene": "FER1L6 (fer-1 like family member 6)", "cell gain with vemurafenib": 0.75, "lactate per cell with vemurafenib": 0.84}
{"Target gene": "ARL3 (ARF like GTPase 3)", "cell gain with vemurafenib": 0.67, "lactate per cell with vemurafenib": 0.81}
{"Target gene": "GPR119 (G protein-coupled receptor 119)", "cell gain with vemurafenib": 0.72, "lactate per cell with vemurafenib": 0.82}
